Tests used:
[1] = Sucrose density-gradient fractionation of latex, relative abundance of BIAs in gradient fractions; parameters: species or system Papaver somniferum
MLP2 = test: ANS displacement assay; type: binding, Papaver somniferum; conditions: ANS displacement dose-response fit
Description: (§1) Eluates were store separately on ice.
(§2) Displacement of ANS is associated with reduced fluorescence.

PR10-4 = test: ANS displacement assay; type: binding, Papaver somniferum; conditions: ANS displacement dose-response fit
Description: as §1, §2

PR10-12 [2] = test: ANS displacement assay; type: binding, Papaver somniferum; conditions: ANS displacement dose-response fit
Description: as §1, §2

PR10-12 [3] = test: Isothermal titration calorimetry; type: binding, Papaver somniferum; conditions: ITC, PBS pH 7.4, 25 °C
Description: ITC experiments were conducted using a Microcal VP instrument (Malvern Pananalytical, Malvern, UK). Recombinant MLP/PR10 protein preparation involving production in Escherichia coli followed by cobalt-affinity chromatography was optimized to yield relatively high purity in a single step as determined by SDS-PAGE and colloidal Coomassie blue silver staining. The less than 48 h decrease in atmospheric oxygen exposure generated high-quality proteins with reduced precipitate. […] Eluates were twice dialysed to equilibrium (i.e., 10–12 h at 4 °C) against a 1000-fold (2–4 L) volume of PBS, pH 7.4 (25 mM sodium phosphate, 50 mM NaCl) or CBS, pH 5.5, resulting in a theoretical million-fold dilution of undesired small molecules (e.g., <0.2 µM imidazole). Dialysis was carried out in boiled Spectra/Por 1 6–8 kDa MWCO 0.32 ml/cm (Spectrum Labs, USA) tubing thoroughly washed with either buffer before use. The second 1000-fold volume of dialysis buffer was filtered and degassed using a reusable bottle-top filtration apparatus (Nalgene, USA) with disposable […] cellulose filters (VWR, Canada) prior to storage at 4 °C. Ligands were dissolved in the filtered dialysis buffer at 21 °C for approximately one hour, and any insoluble material was removed by repeated centrifugation at 21,000 × g for 10 min. No change in pH occurred following substrate addition. Prior to ITC, which was initiated immediately following dialysis, the protein solutions were centrifuged at 17,000 × g and 4 °C for 30 min. Any precipitate was separated from the remaining soluble protein fraction which was quantified by absorption at A280nm and diluted with filtered dialysis buffer immediately before use.
Thermograms were recorded at 25 °C, with a reference power of 10 (dpu/sec) and monitoring of 30 injections of 9 µl BIA ligand solutions into a sample cell containing 1.4 ml of an MLP/PR10 protein solution, with 300 seconds between injections. Protein concentrations varied from 10 to 150 µM to achieve an optimal C value and curve shape valid for parameter calculation. […] To ensure that we report only the heat of reaction for each interaction, independent titrations of ligand into buffer, and buffer into protein solutions, were used to calculate and then subtract heats of dilution. After subtraction, binding isotherms were analyzed in MicroCal Origin 7 (MicroCal, USA) by fitting a single-site binding model using non-linear least squares regression analysis repeated until convergence. […] Each ITC experiment was repeated 2 to 4 times.

Compound: COC1=CC=C2[C@H]3Cc4ccc(OC)c5c4[C@@]2(CCN3C)[C@H]1O5 [Thebaine, thebaine]
- Alkaloid concentration in sucrose density-gradient fraction ([1]; Cultivar 40, fraction 1): 1.704 mM
- Alkaloid concentration in sucrose density-gradient fraction ([1]; Cultivar 40, fraction 2): 1.146 mM
- Alkaloid concentration in sucrose density-gradient fraction ([1]; Cultivar 40, fraction 3): 0.414 mM
- Alkaloid concentration in sucrose density-gradient fraction ([1]; Cultivar 40, fraction 4): 0.200 mM
- Alkaloid concentration in sucrose density-gradient fraction ([1]; Cultivar 40, fraction 5): 0.137 mM
- Alkaloid concentration in sucrose density-gradient fraction ([1]; Cultivar 40, fraction 6): 0.089 mM
- Alkaloid concentration in sucrose density-gradient fraction ([1]; Cultivar 40, fraction 7): 0.069 mM
- Alkaloid concentration in sucrose density-gradient fraction ([1]; Cultivar 40, fraction 8): 0.056 mM
- Alkaloid concentration in sucrose density-gradient fraction ([1]; Cultivar 40, fraction 9): 0.065 mM
- Alkaloid concentration in sucrose density-gradient fraction ([1]; Cultivar 40, fraction 10): 0.079 mM
- Alkaloid concentration in sucrose density-gradient fraction ([1]; Cultivar 40, fraction 11): 0.084 mM
- Alkaloid concentration in sucrose density-gradient fraction ([1]; Cultivar 40, fraction 12): 0.081 mM
- Alkaloid concentration in sucrose density-gradient fraction ([1]; Cultivar 40, fraction 13): 0.138 mM
- Alkaloid concentration in sucrose density-gradient fraction ([1]; Cultivar 40, fraction 14): 0.153 mM
- Alkaloid concentration in sucrose density-gradient fraction ([1]; Cultivar 40, fraction 15): 0.147 mM
- Alkaloid concentration in sucrose density-gradient fraction ([1]; Cultivar 40, fraction 16): 0.128 mM
- Alkaloid concentration in sucrose density-gradient fraction ([1]; Cultivar 40, fraction 17): 0.096 mM
- Alkaloid concentration in sucrose density-gradient fraction ([1]; Cultivar 40, fraction 18): 0.067 mM
- Alkaloid concentration in sucrose density-gradient fraction ([1]; Cultivar 40, fraction 19): 0.054 mM
- Alkaloid concentration in sucrose density-gradient fraction ([1]; Cultivar 40, fraction 20): 0.106 mM
- Alkaloid concentration in sucrose density-gradient fraction ([1]; Cultivar 40, fraction 21): 0.076 mM
- Alkaloid concentration in sucrose density-gradient fraction ([1]; Cultivar 40, fraction 22): 0.056 mM
- Alkaloid concentration in sucrose density-gradient fraction ([1]; Cultivar Roxanne, fraction 1): 0.540 mM
- Alkaloid concentration in sucrose density-gradient fraction ([1]; Cultivar Roxanne, fraction 2): 0.244 mM
- Alkaloid concentration in sucrose density-gradient fraction ([1]; Cultivar Roxanne, fraction 3): 0.059 mM
- Alkaloid concentration in sucrose density-gradient fraction ([1]; Cultivar Roxanne, fraction 4): 0.023 mM
- Alkaloid concentration in sucrose density-gradient fraction ([1]; Cultivar Roxanne, fraction 5): 0.024 mM
- Alkaloid concentration in sucrose density-gradient fraction ([1]; Cultivar Roxanne, fraction 6): 0.017 mM
- Alkaloid concentration in sucrose density-gradient fraction ([1]; Cultivar Roxanne, fraction 7): 0.013 mM
- Alkaloid concentration in sucrose density-gradient fraction ([1]; Cultivar Roxanne, fraction 8): 0.012 mM
- Alkaloid concentration in sucrose density-gradient fraction ([1]; Cultivar Roxanne, fraction 9): 0.010 mM
- Alkaloid concentration in sucrose density-gradient fraction ([1]; Cultivar Roxanne, fraction 10): 0.010 mM
- Alkaloid concentration in sucrose density-gradient fraction ([1]; Cultivar Roxanne, fraction 11): 0.00455 mM
- Alkaloid concentration in sucrose density-gradient fraction ([1]; Cultivar Roxanne, fraction 12): 0.013 mM
- Alkaloid concentration in sucrose density-gradient fraction ([1]; Cultivar Roxanne, fraction 13): 0.013 mM
- Alkaloid concentration in sucrose density-gradient fraction ([1]; Cultivar Roxanne, fraction 14): 0.017 mM
- Alkaloid concentration in sucrose density-gradient fraction ([1]; Cultivar Roxanne, fraction 15): 0.025 mM
- Alkaloid concentration in sucrose density-gradient fraction ([1]; Cultivar Roxanne, fraction 16): 0.034 mM
- Alkaloid concentration in sucrose density-gradient fraction ([1]; Cultivar Roxanne, fraction 17): 0.031 mM
- Alkaloid concentration in sucrose density-gradient fraction ([1]; Cultivar Roxanne, fraction 18): 0.029 mM
- Alkaloid concentration in sucrose density-gradient fraction ([1]; Cultivar Roxanne, fraction 19): 0.025 mM
- Alkaloid concentration in sucrose density-gradient fraction ([1]; Cultivar Roxanne, fraction 20): 0.022 mM
- Alkaloid concentration in sucrose density-gradient fraction ([1]; Cultivar Roxanne, fraction 21): 0.013 mM
- Alkaloid concentration in sucrose density-gradient fraction ([1]; Cultivar Roxanne, fraction 22): 0.027 mM
- Alkaloid concentration in sucrose density-gradient fraction ([1]; Cultivar T, fraction 1): 3.249 mM
- Alkaloid concentration in sucrose density-gradient fraction ([1]; Cultivar T, fraction 2): 4.190 mM
- Alkaloid concentration in sucrose density-gradient fraction ([1]; Cultivar T, fraction 3): 1.719 mM
- Alkaloid concentration in sucrose density-gradient fraction ([1]; Cultivar T, fraction 4): 0.913 mM
- Alkaloid concentration in sucrose density-gradient fraction ([1]; Cultivar T, fraction 5): 0.601 mM
- Alkaloid concentration in sucrose density-gradient fraction ([1]; Cultivar T, fraction 6): 0.461 mM
- Alkaloid concentration in sucrose density-gradient fraction ([1]; Cultivar T, fraction 7): 0.366 mM
- Alkaloid concentration in sucrose density-gradient fraction ([1]; Cultivar T, fraction 8): 0.329 mM
- Alkaloid concentration in sucrose density-gradient fraction ([1]; Cultivar T, fraction 9): 0.312 mM
- Alkaloid concentration in sucrose density-gradient fraction ([1]; Cultivar T, fraction 10): 0.304 mM
- Alkaloid concentration in sucrose density-gradient fraction ([1]; Cultivar T, fraction 11): 0.389 mM
- Alkaloid concentration in sucrose density-gradient fraction ([1]; Cultivar T, fraction 12): 0.503 mM
- Alkaloid concentration in sucrose density-gradient fraction ([1]; Cultivar T, fraction 13): 0.437 mM
- Alkaloid concentration in sucrose density-gradient fraction ([1]; Cultivar T, fraction 14): 0.528 mM
- Alkaloid concentration in sucrose density-gradient fraction ([1]; Cultivar T, fraction 15): 0.518 mM
- Alkaloid concentration in sucrose density-gradient fraction ([1]; Cultivar T, fraction 16): 0.558 mM
- Alkaloid concentration in sucrose density-gradient fraction ([1]; Cultivar T, fraction 17): 0.702 mM
- Alkaloid concentration in sucrose density-gradient fraction ([1]; Cultivar T, fraction 18): 0.699 mM
- Alkaloid concentration in sucrose density-gradient fraction ([1]; Cultivar T, fraction 19): 0.723 mM
- Alkaloid concentration in sucrose density-gradient fraction ([1]; Cultivar T, fraction 20): 0.585 mM
- Alkaloid concentration in sucrose density-gradient fraction ([1]; Cultivar T, fraction 21): 0.601 mM
- Alkaloid concentration in sucrose density-gradient fraction ([1]; Cultivar T, fraction 22): 0.734 mM
- Hill Slope (MLP2): -1.55 ± 0.61
- Hill Slope (PR10-4): -0.66 ± 0.26
- Hill Slope (PR10-12 [2]): -1.67 ± 0.70
- ΔH (PR10-12 [3]): 5.348 ± 0.0821 kcal/mol
- ΔS (PR10-12 [3]): 39.3 cal/mol/˚K
- N (PR10-12 [3]; single-site model): 0.54 ± 0.00587
